Experimental data published in publication PMC7070087.
These are yes or no findings as the source states them, for the method shown. Binding seen in cells or lysates may run through a third protein.

By UniProt entry, the sequences of proteins in these tests, tags left out.
UniProt P84022: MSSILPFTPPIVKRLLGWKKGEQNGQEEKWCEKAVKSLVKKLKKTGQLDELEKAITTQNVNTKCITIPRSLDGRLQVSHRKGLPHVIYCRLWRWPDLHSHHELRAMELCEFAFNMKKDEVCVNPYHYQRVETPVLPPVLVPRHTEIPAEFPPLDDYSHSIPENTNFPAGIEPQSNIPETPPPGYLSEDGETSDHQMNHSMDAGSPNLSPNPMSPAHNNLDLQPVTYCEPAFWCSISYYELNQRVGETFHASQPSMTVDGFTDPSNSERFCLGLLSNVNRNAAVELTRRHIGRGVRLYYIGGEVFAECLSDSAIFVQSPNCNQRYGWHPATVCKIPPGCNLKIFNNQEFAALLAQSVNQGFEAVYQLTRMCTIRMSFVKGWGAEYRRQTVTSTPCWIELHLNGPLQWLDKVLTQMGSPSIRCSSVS
UniProt Q9R1E0: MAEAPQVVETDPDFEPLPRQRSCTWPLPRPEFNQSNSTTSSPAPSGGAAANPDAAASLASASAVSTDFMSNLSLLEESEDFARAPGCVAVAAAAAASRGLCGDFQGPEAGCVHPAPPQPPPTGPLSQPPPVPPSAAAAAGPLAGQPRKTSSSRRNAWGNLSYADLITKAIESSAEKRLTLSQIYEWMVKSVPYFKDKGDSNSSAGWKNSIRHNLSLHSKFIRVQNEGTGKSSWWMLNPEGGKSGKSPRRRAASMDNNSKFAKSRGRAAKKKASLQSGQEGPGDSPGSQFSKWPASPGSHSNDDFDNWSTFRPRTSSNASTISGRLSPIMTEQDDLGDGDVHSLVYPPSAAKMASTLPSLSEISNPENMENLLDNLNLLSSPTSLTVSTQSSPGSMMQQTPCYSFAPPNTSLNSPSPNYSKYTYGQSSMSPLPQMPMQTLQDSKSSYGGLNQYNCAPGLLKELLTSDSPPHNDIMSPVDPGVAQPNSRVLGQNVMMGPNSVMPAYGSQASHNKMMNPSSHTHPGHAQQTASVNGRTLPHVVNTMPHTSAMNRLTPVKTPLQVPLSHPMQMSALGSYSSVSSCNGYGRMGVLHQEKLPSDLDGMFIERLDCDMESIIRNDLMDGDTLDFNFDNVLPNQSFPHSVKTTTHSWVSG
UniProt Q8BUN5: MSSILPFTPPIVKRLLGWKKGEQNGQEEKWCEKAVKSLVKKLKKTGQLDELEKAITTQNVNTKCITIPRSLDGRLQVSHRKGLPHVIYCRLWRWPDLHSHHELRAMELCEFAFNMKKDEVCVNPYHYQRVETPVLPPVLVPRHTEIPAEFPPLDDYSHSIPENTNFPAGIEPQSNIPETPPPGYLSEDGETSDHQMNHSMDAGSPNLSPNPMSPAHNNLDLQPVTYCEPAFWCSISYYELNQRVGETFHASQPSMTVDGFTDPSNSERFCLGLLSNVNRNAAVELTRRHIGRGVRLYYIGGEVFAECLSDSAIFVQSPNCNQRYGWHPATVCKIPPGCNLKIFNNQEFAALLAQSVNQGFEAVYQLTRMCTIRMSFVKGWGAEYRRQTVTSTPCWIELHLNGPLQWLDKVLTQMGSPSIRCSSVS

What was measured:
Flag-tagged WT Smad3 = Flag-tagged WT Smad3 (UniProt P84022); experiment: co-IP; as a1, cells treated with 5 ng/ml TGF-β1 and 0.5 mM palmitate together with 10 µM SB431542 (TβR1 kinase inhibitor) for 24 h; IP with mouse anti-Flag, blot with rabbit anti-FOXO1
[1] = biological target: FOXO1 (mouse (endogenous in MIN6)) (UniProt Q9R1E0); experiment: co-IP; as a3, untransfected MIN6 cells treated with 5 ng/ml TGF-β1 and 0.5 mM palmitate together with 10 µM SB431542 for 24 h; IP with rabbit anti-FOXO1, blot with mouse anti-Smad3

| Substance | binding (Flag-tagged WT Smad3) | binding [1] |
| --- | --- | --- |
| FOXO1 (from UniProt Q9R1E0 1-652) | no binding (condition: cells treated with 10 µM SB431542) |  |
| Smad3 (endogenous) (from UniProt Q8BUN5 1-425) |  | no binding (condition: cells treated with 10 µM SB431542) |
